Measurements from article PMC4999519.

Molecular target: T1, Perilipin 5 (endogenous) (mouse (endogenous in C2C12, mouse BAT, brown adipocyte line)) (UniProt Q8BVZ1)
T1 sequence: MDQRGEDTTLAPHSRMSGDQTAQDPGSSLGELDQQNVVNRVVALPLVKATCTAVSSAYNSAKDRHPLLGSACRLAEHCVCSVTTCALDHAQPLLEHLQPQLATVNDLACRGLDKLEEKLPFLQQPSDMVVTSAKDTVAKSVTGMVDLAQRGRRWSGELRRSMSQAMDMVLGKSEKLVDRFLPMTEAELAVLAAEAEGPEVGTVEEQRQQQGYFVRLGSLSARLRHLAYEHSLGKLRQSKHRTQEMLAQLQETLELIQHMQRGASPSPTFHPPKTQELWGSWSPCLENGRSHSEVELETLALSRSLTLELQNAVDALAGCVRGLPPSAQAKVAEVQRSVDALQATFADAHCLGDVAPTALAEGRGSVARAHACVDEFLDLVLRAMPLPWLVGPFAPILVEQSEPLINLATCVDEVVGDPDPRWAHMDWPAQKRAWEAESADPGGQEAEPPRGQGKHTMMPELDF
Experiment: co-IP; IP of Perilipin 5, western blot for PGC-1α, histone H3, Creb and actin (Supplementary Fig. 11); cells not given

- binding: no binding
Substance: actin

Results are given in words; binding and its absence hold for the method and conditions named. Binding seen in cells or lysates may run through a third protein.
